Results are given in words; binding and its absence hold for the method and conditions named. Some entries that bind do so weakly or less than the wild type.

Sequences of proteins named here, by UniProt entry; tags and fusion partners are left off. A change or cut given only in a name is not applied to a line headed by its entry.
UniProt O15123: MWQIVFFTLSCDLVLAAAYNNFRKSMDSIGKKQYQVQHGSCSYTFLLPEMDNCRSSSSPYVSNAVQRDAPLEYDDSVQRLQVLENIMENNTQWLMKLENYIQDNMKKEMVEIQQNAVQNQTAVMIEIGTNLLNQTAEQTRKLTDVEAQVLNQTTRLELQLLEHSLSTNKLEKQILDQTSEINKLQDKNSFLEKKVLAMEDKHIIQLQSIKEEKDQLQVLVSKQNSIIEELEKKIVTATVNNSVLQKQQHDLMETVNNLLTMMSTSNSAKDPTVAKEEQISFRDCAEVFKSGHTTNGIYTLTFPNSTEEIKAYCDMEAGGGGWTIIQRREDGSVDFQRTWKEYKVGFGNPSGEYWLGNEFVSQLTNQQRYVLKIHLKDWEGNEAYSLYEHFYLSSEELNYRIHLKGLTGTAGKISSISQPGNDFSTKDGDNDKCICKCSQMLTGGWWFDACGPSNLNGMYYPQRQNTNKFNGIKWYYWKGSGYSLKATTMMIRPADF

The experiment concerns the target FLAG-tagged hAng-2 (human) (UniProt O15123). Description: Complex ELISA: plate coated with Tie2-Fc (4 ug/ml), FLAG-Ang2 0.25 ug/ml and 10D6 2 ug/ml added together, bound 10D6 detected with anti-mouse IgG-HRP, OD450. Background: ELISA stands for enzyme-linked immunosorbent assay.

B1: SAIT-ANG2-AB-m10D6 (antibody, V domains shown)
VH: DVQLQESGPDLVKPSQSLSLTCTVTGYSITSDYAWNWIRQFPGNKLEWMGYINYSGNTDYNPSLKSRSSITRDTSKNQFFLQLNSVTTGDTATYYCARGNFEGAMDYWGQGTSVTVSS
VL: SIVMTQTPKFLLVSAGDRVTITCKASQSVSNDVAWYQQKPGQSPKLLIYYASNRYPGVPDRFTGSGYGTDFTFTISTVQAEDLAVYFCQQDYSSPWTFGGGTKLEIK
In the case of B1, the binding result is on record as “binds”.

Source of the values: patent US20160053025A1.
